The values below come from patent publication US20210163606A1.

Experiment [1] addresses T1, mouse NRP2 (mouse) (UniProt O35375).
T1 sequence (looked up): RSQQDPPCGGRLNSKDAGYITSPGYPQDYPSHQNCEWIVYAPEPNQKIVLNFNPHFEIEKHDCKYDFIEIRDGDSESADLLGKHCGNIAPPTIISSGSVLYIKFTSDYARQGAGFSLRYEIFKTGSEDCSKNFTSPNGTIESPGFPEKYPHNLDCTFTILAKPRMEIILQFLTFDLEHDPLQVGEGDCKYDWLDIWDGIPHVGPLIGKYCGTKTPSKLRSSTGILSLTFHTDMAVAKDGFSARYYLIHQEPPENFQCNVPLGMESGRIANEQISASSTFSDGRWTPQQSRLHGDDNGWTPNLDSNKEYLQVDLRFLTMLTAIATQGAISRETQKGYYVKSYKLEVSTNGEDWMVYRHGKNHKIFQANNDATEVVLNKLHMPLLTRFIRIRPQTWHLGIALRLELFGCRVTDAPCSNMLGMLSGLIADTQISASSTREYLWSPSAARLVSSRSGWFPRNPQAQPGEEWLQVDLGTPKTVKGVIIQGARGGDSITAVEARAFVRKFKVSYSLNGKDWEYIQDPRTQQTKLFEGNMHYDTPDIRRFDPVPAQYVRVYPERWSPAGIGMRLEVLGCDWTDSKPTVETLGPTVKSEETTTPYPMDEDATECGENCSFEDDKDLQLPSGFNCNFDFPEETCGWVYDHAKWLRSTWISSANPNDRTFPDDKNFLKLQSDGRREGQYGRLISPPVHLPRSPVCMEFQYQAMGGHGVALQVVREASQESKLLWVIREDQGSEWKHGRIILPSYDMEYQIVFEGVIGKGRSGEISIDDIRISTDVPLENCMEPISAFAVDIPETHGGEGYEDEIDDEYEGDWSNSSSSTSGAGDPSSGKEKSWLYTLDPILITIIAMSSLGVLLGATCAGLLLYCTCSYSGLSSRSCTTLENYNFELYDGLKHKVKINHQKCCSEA
The experiment is described as follows: told in a figure legend; no binding assay described.

The target in experiment [2] is T1, mouse NRP2 (mouse). Kind of experiment: told in the example; no binding assay described.

These are yes or no findings as the source states them, for the method shown. Some results given as binding are weak or reduced against the parent protein; the word gives no strength.

B1: aNRP2-28v2/4 (antibody, V domains shown)
VH: QSVKESEGGLFKPTDTLTLTCTVSGFSLSTYSISWVRQAPGNGLEWIGIIGDAGGIIYATWAKSRSTITRSTALNTVTLKMTGLTAADTATYFCARDGTAFDIWGPGTLVTVSS
VL: AYDMTQTPASVEVVVGGTVTIKCQASQSIYSKLGWYQQKPGQPPKLLIYRASTLASGVSSRFKGSGSGTEYTLTISGVQCDDAATYYCQQDYSYINVDNIFGGGTEVVVK
With B1, the binding result in experiment [1] and in experiment [2] was “binds” each time.
